The target of assay [1] is dystrophin (full-length) (mouse (endogenous in heart)) (UniProt P11531). Nature of the assay: co-IP; IP with the MANEX1011B monoclonal antibody from cardiac lysates of wild-type (dystrophin) and μDYS-mdx^5cv (μDys) mice, western blot of the IPs; controls: MANEX1011B IPs from mdx^5cv lysates and IPs with the MW8 control antibody.
Assay [2] has the same target. The assay is described as above. This is another data set of the same source.

The chains behind the UniProt entries cited, without tags or fusion partners.
UniProt P11531: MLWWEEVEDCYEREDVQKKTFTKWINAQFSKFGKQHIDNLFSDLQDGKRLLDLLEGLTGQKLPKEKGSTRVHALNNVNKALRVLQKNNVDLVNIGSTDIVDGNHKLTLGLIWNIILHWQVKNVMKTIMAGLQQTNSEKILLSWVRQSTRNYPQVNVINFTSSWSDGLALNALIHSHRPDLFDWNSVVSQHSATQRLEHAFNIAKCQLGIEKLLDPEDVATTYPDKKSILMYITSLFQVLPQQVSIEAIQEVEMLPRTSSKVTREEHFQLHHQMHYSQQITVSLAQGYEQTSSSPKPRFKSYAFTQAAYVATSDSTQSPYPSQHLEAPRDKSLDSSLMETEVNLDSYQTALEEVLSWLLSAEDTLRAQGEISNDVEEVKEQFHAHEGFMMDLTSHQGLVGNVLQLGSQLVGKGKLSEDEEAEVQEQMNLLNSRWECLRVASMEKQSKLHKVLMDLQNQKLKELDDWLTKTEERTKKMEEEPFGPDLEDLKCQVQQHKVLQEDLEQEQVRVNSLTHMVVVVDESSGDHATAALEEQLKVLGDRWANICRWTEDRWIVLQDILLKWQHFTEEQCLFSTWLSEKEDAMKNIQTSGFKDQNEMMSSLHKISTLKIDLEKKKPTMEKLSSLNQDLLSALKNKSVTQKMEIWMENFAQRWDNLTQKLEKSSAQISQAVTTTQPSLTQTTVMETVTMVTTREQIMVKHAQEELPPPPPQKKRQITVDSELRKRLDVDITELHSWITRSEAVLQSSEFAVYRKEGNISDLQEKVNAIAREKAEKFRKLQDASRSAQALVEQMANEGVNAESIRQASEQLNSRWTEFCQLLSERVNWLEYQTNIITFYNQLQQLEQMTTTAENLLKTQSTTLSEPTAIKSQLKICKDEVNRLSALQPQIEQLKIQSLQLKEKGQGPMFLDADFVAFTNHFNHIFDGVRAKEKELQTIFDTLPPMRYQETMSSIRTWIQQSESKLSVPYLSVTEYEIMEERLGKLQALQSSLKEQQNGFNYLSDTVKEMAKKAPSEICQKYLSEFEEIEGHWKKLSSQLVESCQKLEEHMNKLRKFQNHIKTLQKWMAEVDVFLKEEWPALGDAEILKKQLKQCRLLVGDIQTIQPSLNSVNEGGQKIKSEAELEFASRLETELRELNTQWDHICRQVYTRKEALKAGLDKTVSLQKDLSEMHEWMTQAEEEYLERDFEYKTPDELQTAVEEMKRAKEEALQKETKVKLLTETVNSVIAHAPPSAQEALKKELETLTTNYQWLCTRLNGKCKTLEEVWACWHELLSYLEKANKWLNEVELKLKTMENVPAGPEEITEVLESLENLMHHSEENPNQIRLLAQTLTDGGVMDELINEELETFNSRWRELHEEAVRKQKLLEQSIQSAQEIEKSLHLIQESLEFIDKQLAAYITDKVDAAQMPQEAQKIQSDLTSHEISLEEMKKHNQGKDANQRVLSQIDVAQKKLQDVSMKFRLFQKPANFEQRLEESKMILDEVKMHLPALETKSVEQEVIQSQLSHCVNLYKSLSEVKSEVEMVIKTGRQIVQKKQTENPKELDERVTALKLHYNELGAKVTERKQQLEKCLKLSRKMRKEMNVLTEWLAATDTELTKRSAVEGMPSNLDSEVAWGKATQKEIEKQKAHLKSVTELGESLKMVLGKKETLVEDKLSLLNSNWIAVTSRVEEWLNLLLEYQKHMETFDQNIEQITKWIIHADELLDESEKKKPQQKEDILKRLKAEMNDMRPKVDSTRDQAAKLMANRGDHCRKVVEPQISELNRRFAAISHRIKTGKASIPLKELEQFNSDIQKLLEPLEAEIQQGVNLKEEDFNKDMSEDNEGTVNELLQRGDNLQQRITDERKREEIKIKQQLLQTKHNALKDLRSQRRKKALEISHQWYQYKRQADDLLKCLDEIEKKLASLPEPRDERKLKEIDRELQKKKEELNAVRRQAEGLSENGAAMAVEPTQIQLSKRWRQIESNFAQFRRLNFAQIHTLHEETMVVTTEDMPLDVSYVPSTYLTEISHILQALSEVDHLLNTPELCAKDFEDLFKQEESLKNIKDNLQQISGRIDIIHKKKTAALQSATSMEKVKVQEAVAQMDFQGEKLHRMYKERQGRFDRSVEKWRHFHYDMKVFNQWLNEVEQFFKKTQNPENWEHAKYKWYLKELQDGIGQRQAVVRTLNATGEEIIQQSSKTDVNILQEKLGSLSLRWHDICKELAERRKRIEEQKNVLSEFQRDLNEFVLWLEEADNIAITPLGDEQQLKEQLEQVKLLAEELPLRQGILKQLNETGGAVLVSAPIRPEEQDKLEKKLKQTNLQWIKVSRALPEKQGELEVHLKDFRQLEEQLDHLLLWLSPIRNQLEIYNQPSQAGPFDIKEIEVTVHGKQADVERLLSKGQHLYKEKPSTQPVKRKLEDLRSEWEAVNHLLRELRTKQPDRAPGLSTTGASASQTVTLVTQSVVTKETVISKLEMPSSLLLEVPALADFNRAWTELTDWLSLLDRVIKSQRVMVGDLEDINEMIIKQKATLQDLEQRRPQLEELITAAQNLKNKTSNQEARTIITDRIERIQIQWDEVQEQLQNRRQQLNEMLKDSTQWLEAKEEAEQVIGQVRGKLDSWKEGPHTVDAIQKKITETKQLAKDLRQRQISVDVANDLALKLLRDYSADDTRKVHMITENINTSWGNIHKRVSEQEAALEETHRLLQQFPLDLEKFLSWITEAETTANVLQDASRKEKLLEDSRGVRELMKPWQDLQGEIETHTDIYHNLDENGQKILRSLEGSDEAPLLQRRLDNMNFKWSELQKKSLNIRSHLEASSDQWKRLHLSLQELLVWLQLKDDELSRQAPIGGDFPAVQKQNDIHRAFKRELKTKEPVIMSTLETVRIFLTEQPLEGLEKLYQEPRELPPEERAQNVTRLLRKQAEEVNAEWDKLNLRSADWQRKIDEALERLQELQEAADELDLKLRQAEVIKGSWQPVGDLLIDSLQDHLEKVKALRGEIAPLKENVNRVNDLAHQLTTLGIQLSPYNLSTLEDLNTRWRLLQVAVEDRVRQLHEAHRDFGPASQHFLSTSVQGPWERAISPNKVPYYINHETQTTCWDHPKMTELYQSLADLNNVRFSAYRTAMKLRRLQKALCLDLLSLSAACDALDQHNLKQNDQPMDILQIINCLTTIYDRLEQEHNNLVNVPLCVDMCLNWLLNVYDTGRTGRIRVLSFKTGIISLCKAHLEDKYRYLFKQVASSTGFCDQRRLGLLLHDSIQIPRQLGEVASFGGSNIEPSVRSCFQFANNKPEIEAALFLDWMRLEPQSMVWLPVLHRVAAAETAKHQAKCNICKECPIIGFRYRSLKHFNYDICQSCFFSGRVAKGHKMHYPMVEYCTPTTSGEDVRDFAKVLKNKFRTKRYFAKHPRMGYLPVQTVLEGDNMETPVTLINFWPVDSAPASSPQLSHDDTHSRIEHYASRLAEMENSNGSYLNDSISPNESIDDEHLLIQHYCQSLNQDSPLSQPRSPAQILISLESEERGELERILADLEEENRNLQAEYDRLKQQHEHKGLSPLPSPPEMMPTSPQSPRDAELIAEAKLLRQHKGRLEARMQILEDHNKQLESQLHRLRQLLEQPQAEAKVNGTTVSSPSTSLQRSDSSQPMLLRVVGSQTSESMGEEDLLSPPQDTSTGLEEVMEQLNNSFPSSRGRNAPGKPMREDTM

Where two headings read alike, the source gives them in different places. No constants are given. Whether binding was seen depends on the method and setting. Binding seen in cells or lysates may run through a third protein. Some entries that bind do so weakly or less than the wild type.

Consider Ahnak1 (from UniProt E9Q616 1-5656), for which, in assay [1], the binding result is on record as “binds”.

B1: α1-dystrobrevin (protein, UniProt Q9D2N4 1-746)
chain: MIEDSGKRGNTMAERRQLFAEMRAQDLDRIRLSTYRTACKLRFVQKKCNLHLVDIWNVIEALRENALNNLDPNIELNVARLEAVLSTIFYQLNKRMPTTHQIHVEQSISLLLNFLLAAFDPEGHGKISVFAVKMALATLCGGKIMDKLRYIFSMISDSSGVMVYGRYDQFLREVLKLPTAVFEGPSFGYTEQSARSCFSQQKKVTLNGFLDTLMSDPPPQCLVWLPLLHRLANVENVFHPVECSYCHSESMMGFRYRCQQCHNYQLCQDCFWRGHAGGSHSNQHQMKEYTSWKSPAKKLTNALSKSLSCASSREPLHPMFPDQPEKPLNLAHIVPPRPVTSMNDTLFSHSVPSSGSPFITRSSPPKDSEVEQNKMLARAAPAFLKGRGIQYSLNVADRLADEHVLIGLYVNMLRNDPPCMLESSNRLDEEHRLIARYAARLAAESSSSQPTQQRSAPDISFTIDANKQQRQLIAELENKNREILQEIQRLRVEHEQASQPTPEKAQQNPTLLAELRLLRQRKDELEQRMSALQESRRELMVQLEGLMKLLKEEELKQGTQGASSPRSSPSHTISRPIPMPIRSASACPTPTHTPQDSLTGVGGDVQEAFAQSSRRNLRSDLLVAADSITNTMSSLVKELNSEVASETESTVDSEFSRPQFEDLAPSPTSEKAFLAQIHSRKPGYIHGGAASTTHGDMVPEDGDPYTQPEDGNYENESVRQLENELQLEEYLKQKLQDEAYQVSLQG
As for B1, in assay [2], the binding entry is reported as “binds”.

B2: cavin-1 (full-length) (protein, UniProt O54724 1-392)
chain: MEDVTLHIVERPYSGFPDASSEGPEPTQGEARATEEPSGTGSDELIKSDQVNGVLVLSLLDKIIGAVDQIQLTQAQLEERQAEMEGAVQSIQGELSKLGKAHATTSNTVSKLLEKVRKVSVNVKTVRGSLERQAGQIKKLEVNEAELLRRRNFKVMIYQDEVKLPAKLSVSKSLKESEALPEKEGDELGEGERPEDDTAAIELSSDEAVEVEEVIEESRAERIKRSGLRRVDDFKKAFSKEKMEKTKVRTRENLEKTRLKTKENLEKTRHTLEKRMNKLGTRLVPVERREKLKTSRDKLRKSFTPDHVVYARSKTAVYKVPPFTFHVKKIREGEVEVLKATEMVEVGPEDDEVGAERGEATDLLRGSSPDVHTLLEITEESDAVLVDKSDSD
Turning to B2, the binding entry in assay [2] is “binds”.

B3: cavin-2 (protein, UniProt Q63918 1-418)
chain: MGEDAAQAEKFQHPNTDMLQEKPSSPSPMPSSTPSPSLNLGSTEEAIRDNSQVNAVTVHTLLDKLVNMLDAVRENQHNMEQRQINLEGSVKGIQNDLTKLSKYQASTSNTVSKLLEKSRKVSAHTRAVRERLERQCVQVKRLENNHAQLLRRNHFKVLIFQEESEIPASVFVKEPVPSAAEGKEELADENKSLEETLHNVDLSSDDELPRDEEALEDSAEEKMEESRAEKIKRSSLKKVDSLKKAFSRQNIEKKMNKLGTKIVSVERREKIKKSLTPNHQKASSGKSSPFKVSPLSFGRKKVREGESSVENETKLEDQMQEDREEGSFTEGLSEASLPSGLMEGSAEDAEKSARRGNNSAVGSNADLTIEEDEEEEPVALQQAQQVRYESGYMLNSEEMEEPSEKQVQPAVLHVDQTA
For B3, the binding result in assay [2] was “binds”.

B4: cavin-3 (protein, UniProt Q91VJ2 1-260)
chain: MGESALEPGPVPETPAGGPVHAVTVVTLLEKLATMLEALRERQGGLAERQGGLAGSVRRIQSGLGALSRSHDTTSNTLTQLLAKAERVGSHADAAQERAVRRAAQVQRLEANHGLLVARGKLHVLLFKEETEIPARAFQKVPELLGPEDQLVLGPDQPEDEVGESSEEEPVESRAQRLRRTGLQKVQSLKRALSSRKAAQPTPVKPPRVGPVRSSEGPSEGQPAAQPEMESELETALEPEPPQPTKEDPEKPVLQIESAA
As to B4, in assay [2], the binding entry is given as “binds”.

B5: β-dystroglycan (protein, UniProt Q62165 652-893)
chain: SIVVEWTNNTLPLEPCPKEQIIGLSRRIADENGKPRPAFSNALEPDFKALSIAVTGSGSCRHLQFIPVAPPSPGSSAAPATEVPDRDPEKSSEDDVYLHTVIPAVVVAAILLIAGIIAMICYRKKRKGKLTLEDQATFIKKGVPIIFADELDDSKPPPSSSMPLILQEEKAPLPPPEYPNQSMPETTPLNQDTVGEYTPLRDEDPNAPPYQPPPPFTAPMEGKGSRPKNMTPYRSPPPYVPP
Regarding B5, in assay [2], the binding entry is on record as “binds”.

B6: cavin-4 (protein, UniProt A2AMM0 1-362)
chain: MEHNGSASNAGKIHQNRLSSVTEDEDQDAALTIVTVLDRVASVVDSVQASQKRIEERHREMGNAIKSVQIDLLKLSQSHSNTGYVVNKLFEKTRKVSAHIKDVKARVEKQQVRVTKVETKQEEIMKKNKFRVVIFQEDIPCPASLSVVKDRSLPENQEEAEEVFDPPIELSSDEEYYVEESRSARLRKSGKEHIDHIKKAFSRENMQKTRQTLDKKVSGIRTRIVTPERRERLRQSGERLRQSGERLRQSGERFKKSISSAAPSKEAFKIRSLRKAKDPKAEGQEVDRGMGVDIISGSLALGPIHEFHSDEFSETEKEVTKGGYSPQEGGDPPTPEPLKVTFKPQVRVEDDESLLLELKQSS
B6: in assay [2], the binding entry is “binds”.

B7: caveolin-3 (protein, UniProt P51637 1-151)
chain: MMTEEHTDLEARIIKDIHCKEIDLVNRDPKNINEDIVKVDFEDVIAEPEGTYSFDGVWKVSFTTFTVSKYWCYRLLSTLLGVPLALLWGFLFACISFCHIWAVVPCIKSYLIEIQCISHIYSLCIRTFCNPLFAALGQVCSNIKVVLRREG
For the molecule B7, the binding entry in assay [2] is given as “no binding”.

B8: β1-syntrophin (protein, UniProt Q99L88 1-537)
chain: MAVAAAAVAAPAGGGGARAQRSGLLEVLVRDRWHKVLVNLSEDALVLSCEEGAAAYNGIGAATNGSFCRGSGTGHPVPGVAQAPDSPAGVRTAFTDLPEQVPESISNQKRGVKVLKQELGGLGISIKGGKENKMPILISKIFKGLAADQTQALYVGDAILSVNGADLRDATHDEAVQALKRAGKEVLLEVKYMREATPYVKKGSPVSEIGWETPPPESPRLGGGSAEPLSSQSFSFHRDRKSIPLKMCYVTRNMTLADPENRQLEIHSPDAKHTVILRSKDSATAQAWFSAIHSNAGDLLTRVVADIREQLGKTGIAGSREIRHLGWLAEKVPGESEKQWKPALVVLTEKDLLIYDSMPRRKEAWFSPVHSYPLLATRLVHSGPGKGSPQAGMDLSFATRTGTKQGIETHLFRAEISRDLSHWTRSIVQGCHNSAELTAEITTACTYRNQECRLTIHYDNGFSISTEPQDGAFPKTIIQSPYEKLKMSSDDGIRMLYLDFGGKEGEIQLDLHSCPKPIVFIIHSFLSAKITRLGLVA
Take B8: in assay [2], the binding result is “binds”.

The values are drawn from article PMC8255133.
